Measurements from “University of Dundee, Small-Polar-MMV Screening Library” (2021), ChEMBL document CHEMBL3988442.

A: 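Whole-parasite assay of Trypanosoma brucei over 72 hours; the read-out is not stated. Compounds at 30 µM. Direction is inferred from retests: higher values go with stronger inhibition. Values scatter widely below zero; nearly all retest evidence comes from the higher of the two concentrations used. Of about 64,000 compounds tested this way, about 940 (1.5%) reached 50% or more in at least one test.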
B: 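Assay of Toxoplasma gondii numbers, read through their beta-galactosidase reporter with a colour substrate. Tested at 10 µM. The record gives no direction; the compounds picked for IC50 retests had high values, so higher reads as fewer parasites. Size under these conditions: about 67,000 compounds, about 260 of them at 50% or above in at least one test.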

Results are given as percent effect. How 0% and 100% were set is not recorded. Most values in the screen are low, and negative values occur. The compounds are a random part of those screened. A dash means the value is not listed here; it may have been measured.

| # | compound | A | B |
|---|---|---|---|
| 1 | `COc1c(C2CCCN2C(=O)c2ccnc(C)n2)c(C)nn1C` (stereo not shown) | - | 8.688 |
| 2 | `Cc1ccc([C@H]2CN(C(C)C)C[C@@H]2NS(=O)(=O)N2CCOCC2)o1` | -16.97 | 6.505 |
| 3 | `O=C(Nc1ccc(-n2cccn2)cc1)N1CCC(O)C1` (stereo not shown) | -6.86 | -28.84 |
| 4 | `O=C(O)C(F)(F)F.O=C(O)C(F)(F)F.[H][C@@]12CCCO[C@]1([H])[C@@H](OCc1cccc(C)n1)CN2c1nnc(C)s1` | -3.184 | -2.355 |
| 5 | `CN(C)S(=O)(=O)c1ccc(CNC(=O)C2CC2)cc1` | -86.03 | -2.09 |
| 6 | `O=C(O)C(F)(F)F.[H][C@@]12COC[C@]1([H])[C@H](OCc1csc(C)n1)CN2Cc1cccs1` | -14.66 | -2.663 |
| 7 | `O=C(NCCCn1nc2ccccn2c1=O)NC1CCC(O)CC1` (stereo not shown) | -65.98 | -1.533 |
| 8 | `CS(=O)(=O)c1ccccc1NC(=O)N[C@@H]1c2ccccc2C[C@@H]1O` | -52.9 | -47.12 |
| 9 | `COC1CN(C(=O)CC(C)(C)C)CCC(=O)N(C)c2ccccc21` (stereo not shown) | -11.06 | -16.14 |
| 10 | `CCn1c(CC2CCNCC2)nn(Cc2ccc(C(=O)NC)o2)c1=O` | -0.7426 | 10.86 |
| 11 | `CCc1ccc(CCNc2ncnc3c2CCN(C(=O)C2CC2)C3)cc1` | -149.5 | 3.137 |
| 12 | `O=C(c1ccc(N2CCCC2)nn1)N1CCCC(n2cccn2)C1` (stereo not shown) | -30.32 | -4.206 |
| 13 | `O=C(O)CCC(=O)Nc1nn(Cc2ccc(F)cc2)cc1Cl` | -23.62 | 0.6048 |
| 14 | `CC(C)[C@H]1CN(c2ccncc2)C[C@@H]1NS(=O)(=O)N(C)C` | -21.6 | 9.579 |
| 15 | `CCCc1cncnc1N1CCC(NCc2ccncc2)CC1` | -66.51 | 5.589 |
| 16 | `COc1cc(CC2CC(C(N)=O)=NO2)cc2c1OCO2` (stereo not shown) | -5.102 | -10.29 |
| 17 | `CC(NC(=O)c1cn(CCC2CCCCC2)nn1)c1cnn(C)c1` (stereo not shown) | -18.31 | 6.27 |
| 18 | `Cc1cc(C(=O)N2CCOC(c3ccc(Cl)c(Cl)c3)C2)[nH]n1` (stereo not shown) | 23.23 | 4.241 |
| 19 | `CCCNC(=O)CN(C)C1CCN(c2ccc(Cl)cc2)CC1` | 4.081 | -1.818 |
| 20 | `Nc1nccnc1C(=O)N1CCN(Cc2cccc3ccccc23)CC1` | -51.49 | 1.452 |
| 21 | `O=C(O)C(F)(F)F.[H][C@@]12CCN(c3cnccn3)C[C@]1([H])CN(C(=O)c1ccn(C)n1)C2` | -53.9 | -14.3 |
| 22 | `CC(=O)NCc1nnc2n1CCN(c1ncnc3c(C)csc13)CC2` | -30.54 | -69.59 |
| 23 | `[H][C@]12CCN(c3cc(OC)ncn3)[C@@]1([H])C[C@H](C(=O)NC(C)C)O2` | -14.29 | -9.763 |
| 24 | `CS(=O)(=O)N1CCc2ccc(=O)n(CC3CC3)c2CC1` | -33.15 | -7.223 |
| 25 | `CC(C)C(C)N(Cc1cnc2ccccc2n1)Cc1ccco1` (stereo not shown) | 81.63 | 11.75 |
| 26 | `CCCSCC(=O)Nc1ncn(CC(=O)NCc2ccccc2)n1` | 27.43 | -1.652 |
| 27 | `Cc1nocc1C(=O)N1CCc2c(CN(C)C(C)C)n[nH]c2C1` | 2.113 | 14.03 |
| 28 | `O=C1CC(N(C(=O)c2ccc(Oc3ccccc3)cc2)C2CC2)C(=O)N1` (stereo not shown) | -38.05 | 7.442 |
| 29 | `CCN(CC)C(=O)CSc1nc2cc(C)nc-2c(O)n1CC` | -15.72 | 29.47 |
| 30 | `Cc1ccc(CN(Cc2[nH]cnc2C)C2CC(C)(C)NC(C)(C)C2)o1.O=C(O)CC(O)(CC(=O)O)C(=O)O` | -8.677 | -4.924 |
| 31 | `CN(CC1(O)CCCN(c2ccccn2)C1)C(=O)CC1CCOCC1` (stereo not shown) | 8.794 | 14.04 |
| 32 | `CN(Cc1ncc[nH]1)S(=O)(=O)c1cccc(C(=O)N2CCOCC2)c1` | -56.69 | 2.518 |
| 33 | `CNC(=O)c1cccc(CNC(C)c2ccc(F)cc2N(C)C)c1` (stereo not shown) | 2.968 | 7.611 |
| 34 | `O=C(c1ccc(S(=O)(=O)NCc2ccon2)cc1)N1CCOCC1` | -112.6 | 39.06 |
| 35 | `Cc1nn(CCC(=O)NC2CCS(=O)(=O)C2)c(C)c1Br` (stereo not shown) | - | 16.64 |
| 36 | `CN(CCS(=O)(=O)c1cc(Cl)ccc1Cl)CC(N)=O` | -15.71 | -0.8269 |
| 37 | `Cc1nc(NC(=O)c2cccnc2N2CCOCC2)sc1C` | -66.38 | -0.7379 |
| 38 | `Cn1ccnc1-c1noc(NCc2ccccc2)n1` | -3.328 | 3.071 |
| 39 | `O=C(NCc1cn2c(n1)SCC2)c1cn(CCN2CCCCC2)nn1` | -9.731 | 0.4025 |
| 40 | `Cc1cc(C(=O)N2CCN(Cc3ccsc3)CC2)n(C)n1` | 17.38 | -0.7549 |
| 41 | `Cc1nc(CN2CCC(N(C)Cc3noc(C(C)C)n3)C2)cs1` (stereo not shown) | -66.64 | 4.16 |
| 42 | `N#Cc1cc2c(=O)n(CC(O)Cc3ccccc3)ccc2[nH]c1=O` (stereo not shown) | 3.731 | -2.594 |
| 43 | `O=C(Nc1cccnn1)NC(CCCO)c1ccccc1` (stereo not shown) | -14.04 | 3.647 |
| 44 | `Cc1n[nH]c2c1C(c1ccsc1)SCC(=O)N2` (stereo not shown) | -47.87 | 2.439 |
| 45 | `CCOc1ccccc1-n1c(C2CC(=O)N(C)C2)n[nH]c1=O` (stereo not shown) | -37.56 | -1.128 |
| 46 | `COc1c[nH]c(C(=O)Nc2nc(C(C)(C)C)cs2)cc1=O` | -32.29 | -5.888 |
| 47 | `CCCN(C1CCc2ccccc2C1)S(C)(=O)=O` (stereo not shown) | -12.73 | -0.9201 |
| 48 | `CSCC[C@H](N)c1nnc(SCC(=O)Nc2ccc(Br)cc2)o1.Cl` | -43.15 | 1.994 |
| 49 | `[H][C@]12CCN(C(=O)NC3CCCC3)CC[C@@]1([H])S(=O)(=O)N(CCC(C)C)C2` | -21.31 | 3.26 |
| 50 | `Cn1ncc(-c2cc(-c3cccc(O)c3)nc(N)c2C#N)c1C1CC1` | 47.44 | 38.79 |
| 51 | `O=C1OCCN1CCNc1ncc2c(n1)CCN2c1ccccc1` | -18.56 | -1.101 |
| 52 | `[H][C@]12CC[C@@H](Nc3cccnn3)[C@@]1([H])CN(Cc1c[nH]c3ccccc13)C2` | 15.06 | -30 |
| 53 | `CC(Cc1cccnc1)Nc1ncnc2cccc(F)c12` (stereo not shown) | -5.965 | -6.882 |
| 54 | `Cc1nc(-c2ccccc2C)n(CC(=O)NC(C)C)n1` | -56.97 | 4.356 |
| 55 | `CCc1cc(N(C)Cc2ccnc(C)c2)n2nc(C)c(C)c2n1` | -13.68 | -32.79 |
| 56 | `Cc1n[nH]cc1CNC(C(=O)N1CCOCC1)c1ccccc1` (stereo not shown) | -75.11 | 8.144 |
| 57 | `CC(C)CCN1C(=O)c2ccc(C(=O)NCCc3c[nH]cn3)cc2C1=O` | -40.42 | 3.298 |
| 58 | `Cn1ncc2c1C(COCC1CC1)CN(Cc1ccc(F)cc1)C2` (stereo not shown) | - | -0.5917 |
| 59 | `COCC1CN(Cc2ccc(F)cc2)Cc2nn(C)cc21.O=C(O)C(F)(F)F` (stereo not shown) | 27.52 | -11.59 |
| 60 | `CCC1CCC(NCCN2CCOCC2)CC1` (stereo not shown) | -3.3 | -4.846 |
| 61 | `CC(=O)N1CC[C@H](c2nnc(Cc3c[nH]c4ccccc34)o2)C1` | -1.718 | 14.4 |
| 62 | `Cc1cccc2cc(C(=O)N3CCC(F)(F)CC3)n(C)c12` | -46.01 | 6.409 |
| 63 | `O=C(COCC1CC1)Nc1cc(S(=O)(=O)NC2CC2)ccc1F` | -75.83 | 0 |

The first 7 entries again:

{"compound": "COc1c(C2CCCN2C(=O)c2ccnc(C)n2)c(C)nn1C", "stereo": "stereo not shown", "B": 8.688}
{"compound": "Cc1ccc([C@H]2CN(C(C)C)C[C@@H]2NS(=O)(=O)N2CCOCC2)o1", "A": -16.97, "B": 6.505}
{"compound": "O=C(Nc1ccc(-n2cccn2)cc1)N1CCC(O)C1", "stereo": "stereo not shown", "A": -6.86, "B": -28.84}
{"compound": "O=C(O)C(F)(F)F.O=C(O)C(F)(F)F.[H][C@@]12CCCO[C@]1([H])[C@@H](OCc1cccc(C)n1)CN2c1nnc(C)s1", "A": -3.184, "B": -2.355}
{"compound": "CN(C)S(=O)(=O)c1ccc(CNC(=O)C2CC2)cc1", "A": -86.03, "B": -2.09}
{"compound": "O=C(O)C(F)(F)F.[H][C@@]12COC[C@]1([H])[C@H](OCc1csc(C)n1)CN2Cc1cccs1", "A": -14.66, "B": -2.663}
{"compound": "O=C(NCCCn1nc2ccccn2c1=O)NC1CCC(O)CC1", "stereo": "stereo not shown", "A": -65.98, "B": -1.533}